The full ranking holds about 33,000 sequences; the median of “E-score (-0.5 to 0.5)” is about -8e-05, and the highest 2% start at about 0.23. The list shows a part of the results.
What follows are sequences tested against T1, Nrg2 (UniProt P38082) (assay: PBM E-score (8-mer binding enrichment) (E-score (-0.5 to 0.5)); higher = stronger / more preferred TF binding). Details: protein concentration: 100 nM; construct: GST-full length.
T1 sequence: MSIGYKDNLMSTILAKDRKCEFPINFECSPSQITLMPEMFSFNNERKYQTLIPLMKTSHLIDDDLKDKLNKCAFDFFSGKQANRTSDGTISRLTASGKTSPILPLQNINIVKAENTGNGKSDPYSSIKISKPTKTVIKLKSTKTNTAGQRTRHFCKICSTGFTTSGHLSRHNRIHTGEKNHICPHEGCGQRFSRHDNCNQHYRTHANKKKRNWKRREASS
Procedure: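 Universal 'all 10-mer' protein binding microarrays (Agilent AMADID 015681) probed with GST-tagged S. cerevisiae TFs (full-length or DBD) made by in vitro transcription/translation (PURExpress), about 100-200 nM. Bound TF was detected with fluorescent anti-GST. Each ungapped 8-mer (which stands for itself and its reverse complement) is scored by the PBM enrichment score (E-score), a modified Wilcoxon-Mann-Whitney statistic from -0.5 to +0.5, computed with the Universal PBM Analysis Suite. Scale: above 0.35 generally sequence-specific binding.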
For AATCAAGG, the “PBM E-score” value was 0.21.
CTAGCAGA was tested, and the “PBM E-score” value was -0.181.
GGGACCTA was tested, and the “PBM E-score” value was 0.245.
AGAGTCTA was tested, and the “PBM E-score” value was -0.158.
In the case of CGCACACG, the “PBM E-score” value was -0.0461.
In the case of ATTGTGAC, the “PBM E-score” value was 0.2.
With GTCAAGAA the “PBM E-score” value was 0.216.
In the case of ATTTAAAA, the “PBM E-score” value was 0.086.
For GTCACCTA, the “PBM E-score” value was -0.199.
With GTCAGTCA the “PBM E-score” value was -0.113.
CTGTATAC was tested, and the “PBM E-score” value was 0.0338.
For ACGATTGC, the “PBM E-score” value was 0.197.
For ACTTAATC, the “PBM E-score” value was -0.0933.
GGTATCAC was tested, and the “PBM E-score” value was -0.0149.
GGCATCAC was tested, and the “PBM E-score” value was -0.129.
For ACAGATAC, the “PBM E-score” value was 0.131.
With ATACACAT the “PBM E-score” value was 0.109.
In the case of GTACAGCA, the “PBM E-score” value was -0.139.
ACCTTAAA was tested, and the “PBM E-score” value was 0.064.
AATTCGGT was tested, and the “PBM E-score” value was 0.19.
In the case of AGCCTAGG, the “PBM E-score” value was -0.197.
For AGGTTTTC, the “PBM E-score” value was 0.0486.
With ACAAGGAT the “PBM E-score” value was -0.0601.
GAATAATA was tested, and the “PBM E-score” value was 0.238.
For GACGGTTA, the “PBM E-score” value was -0.142.
For CTGGTGAA, the “PBM E-score” value was -0.151.
ACGGAACC was tested, and the “PBM E-score” value was 0.0943.
For CTACGTAC, the “PBM E-score” value was -0.0598.
CATTATCG was tested, and the “PBM E-score” value was -0.0577.
With ATCGGTCA the “PBM E-score” value was -0.00087.
For GGGAATAA, the “PBM E-score” value was 0.178.
ATAAAAAG was tested, and the “PBM E-score” value was 0.257.
AAAGCGAC was tested, and the “PBM E-score” value was 0.0733.
CCTATACA was tested, and the “PBM E-score” value was 0.0289.
For ACGGGGGA, the “PBM E-score” value was -0.175.
In the case of ACGACCCG, the “PBM E-score” value was 0.168.
With CCATCGCC the “PBM E-score” value was -0.0853.
In the case of CACGGTGC, the “PBM E-score” value was -0.182.
With GGATTTGA the “PBM E-score” value was -0.0324.
CGTCCCCA was tested, and the “PBM E-score” value was -0.047.
For CCGCTATC, the “PBM E-score” value was 0.00946.
AATACGCC was tested, and the “PBM E-score” value was -0.137.
With AAAGCACT the “PBM E-score” value was 0.0856.
With CTCTGCAC the “PBM E-score” value was -0.169.
In the case of GCTGGCCC, the “PBM E-score” value was -0.0623.
For CTTTACAC, the “PBM E-score” value was 0.112.
For CAGCAGAG, the “PBM E-score” value was -0.128.
For AAGCGTCC, the “PBM E-score” value was -0.0875.
With AGATATGC the “PBM E-score” value was 0.0775.
With CGCTAAAG the “PBM E-score” value was -0.00095.
With AAAAGTCA the “PBM E-score” value was -0.127.
AAGGTACA was tested, and the “PBM E-score” value was -0.0356.
For CAAAGAGA, the “PBM E-score” value was -0.0733.
With ACTTGTGC the “PBM E-score” value was -0.0536.
With TCGTTGAA the “PBM E-score” value was -0.0977.
With ATAACTCC the “PBM E-score” value was -0.0547.
For AAATCCTC, the “PBM E-score” value was -0.00147.
CATATACA was tested, and the “PBM E-score” value was 0.159.
ACCGAGCT was tested, and the “PBM E-score” value was -0.00413.
With GGATGCCC the “PBM E-score” value was -0.255.
CTAGGTAC was tested, and the “PBM E-score” value was -0.187.
For CATCCCAG, the “PBM E-score” value was -0.0703.
With CGCAGACA the “PBM E-score” value was 0.185.
For CATAGTGA, the “PBM E-score” value was -0.108.
In the case of ATGGTCAA, the “PBM E-score” value was 0.0461.
ATATTCCA was tested, and the “PBM E-score” value was 0.205.
With CTGCACCC the “PBM E-score” value was 0.00564.
With CTATTTTC the “PBM E-score” value was 0.0804.
CGAGGAAA was tested, and the “PBM E-score” value was 0.0442.
For ATGACGGC, the “PBM E-score” value was -0.06.
GCGCTGAC was tested, and the “PBM E-score” value was 0.00013.
With AACACTTC the “PBM E-score” value was 0.22.
For CTATGGGC, the “PBM E-score” value was 0.0903.
ATCGGCAC was tested, and the “PBM E-score” value was 0.0929.
With ACCACCCT the “PBM E-score” value was -0.0901.
For GCCCGGGA, the “PBM E-score” value was -0.125.
In the case of CCCCGCGC, the “PBM E-score” value was -0.1.
CGGAATCA was tested, and the “PBM E-score” value was 0.179.
For CACGTATG, the “PBM E-score” value was -0.169.
For AAATGGAG, the “PBM E-score” value was 0.0118.
GGCCTTCA was tested, and the “PBM E-score” value was -0.0206.
In the case of AACCGACA, the “PBM E-score” value was 0.0543.
With CAATTTGG the “PBM E-score” value was 0.00493.
ACACGGGA was tested, and the “PBM E-score” value was 0.0947.
In the case of CGTACCGC, the “PBM E-score” value was 0.00147.
CTCCCACA was tested, and the “PBM E-score” value was -0.0449.
GCTTGTCA was tested, and the “PBM E-score” value was 0.118.
With AGCCTACC the “PBM E-score” value was -0.246.
AATATACG was tested, and the “PBM E-score” value was 0.0258.
For GCAATAAA, the “PBM E-score” value was 0.269.
In the case of CGTGTCGA, the “PBM E-score” value was 0.0013.
CATAACTC was tested, and the “PBM E-score” value was -0.0265.
For CAGGCAAC, the “PBM E-score” value was -0.0806.
CCGCACTC was tested, and the “PBM E-score” value was 0.15.
In the case of AAGTCTAC, the “PBM E-score” value was 0.0468.
AACAAGGT was tested, and the “PBM E-score” value was 0.0681.
ATAAATTC was tested, and the “PBM E-score” value was 0.0818.
In the case of TACTCCCA, the “PBM E-score” value was 0.0705.
With CCACACCC the “PBM E-score” value was 0.00707.
In the case of CATGATCG, the “PBM E-score” value was -0.00025.
In the case of GCCCCAGA, the “PBM E-score” value was -0.0796.
For CGCATATC, the “PBM E-score” value was 0.293.
For CAGGCTAC, the “PBM E-score” value was -0.0943.
CTGGTCAC was tested, and the “PBM E-score” value was -0.0986.
For ACGTGGAC, the “PBM E-score” value was 0.079.
For AGGAGTTG, the “PBM E-score” value was -0.017.
CAAAGCCC was tested, and the “PBM E-score” value was -0.148.
For CGGCTAGA, the “PBM E-score” value was -0.2.
For ACCGGACA, the “PBM E-score” value was -0.157.
With AACCTTCA the “PBM E-score” value was -0.0432.
In the case of AAGCATAT, the “PBM E-score” value was -0.0895.
AATGTGGC was tested, and the “PBM E-score” value was 0.181.
With AAGATACT the “PBM E-score” value was 0.14.
GCGAGCGA was tested, and the “PBM E-score” value was 0.157.
For ACCCTCAG, the “PBM E-score” value was 0.0566.
ATCGCATG was tested, and the “PBM E-score” value was 0.188.
For ATAATGTG, the “PBM E-score” value was 0.0555.
In the case of ATCTGACG, the “PBM E-score” value was -0.0799.
With CGTATAAG the “PBM E-score” value was -0.0314.
With CGATTAAG the “PBM E-score” value was 0.0277.
For CACCCTAG, the “PBM E-score” value was 0.113.
With AATAGATT the “PBM E-score” value was 0.0195.
ACGACAGC was tested, and the “PBM E-score” value was 0.0488.
For AGAGGTGA, the “PBM E-score” value was 0.0253.
In the case of CTTAGTAC, the “PBM E-score” value was 0.0352.
For GCACCAAA, the “PBM E-score” value was 0.106.
In the case of ATCCAGAC, the “PBM E-score” value was 0.0244.
GAAAACAC was tested, and the “PBM E-score” value was 0.0782.
In the case of ATGGAACG, the “PBM E-score” value was 0.0154.
With AGTCAACG the “PBM E-score” value was -0.0331.
With AGTTAATC the “PBM E-score” value was 0.0905.
For AGTTGCGG, the “PBM E-score” value was 0.228.
ACAGTTAA was tested, and the “PBM E-score” value was 0.0947.
For AGCCGTGA, the “PBM E-score” value was 0.00802.
For ACGCCCTA, the “PBM E-score” value was -0.161.
With GTTAATCA the “PBM E-score” value was 0.164.
With ACGGGAGG the “PBM E-score” value was -0.198.
For CAACGAAA, the “PBM E-score” value was 0.0979.
In the case of TCTTACAA, the “PBM E-score” value was -0.194.
For ATTAGGAC, the “PBM E-score” value was -0.0887.
For GTAAACTA, the “PBM E-score” value was 0.0694.
For GCCGCTCA, the “PBM E-score” value was -0.0694.
With GCACCAGC the “PBM E-score” value was -0.0819.
CGGCCCTA was tested, and the “PBM E-score” value was 0.127.
CCAAGTTC was tested, and the “PBM E-score” value was -0.0364.
GTGTTCCA was tested, and the “PBM E-score” value was -0.116.
With ATTTCTTG the “PBM E-score” value was 0.159.
AAGTCCAT was tested, and the “PBM E-score” value was -0.0391.
For GACGCAAC, the “PBM E-score” value was -0.00802.
For ATCCATCC, the “PBM E-score” value was 0.124.
For ACAAGGTC, the “PBM E-score” value was -0.0117.
In the case of AAGCGGAA, the “PBM E-score” value was -0.0181.
CATCATGC was tested, and the “PBM E-score” value was 0.0406.
With GTAAGCCA the “PBM E-score” value was -0.113.
For GCACTTCA, the “PBM E-score” value was 0.0324.
In the case of CGGATCTC, the “PBM E-score” value was 0.00911.
CATCACCG was tested, and the “PBM E-score” value was -0.133.
For GAGCCACC, the “PBM E-score” value was -0.345.
For ATGCAAAA, the “PBM E-score” value was 0.164.
TCTGAAAA was tested, and the “PBM E-score” value was -0.101.
For CATATAAA, the “PBM E-score” value was 0.00613.
For CTCTCGGA, the “PBM E-score” value was 0.073.
For CCTCGAAC, the “PBM E-score” value was -0.0033.
For AGTGAAAC, the “PBM E-score” value was 0.0762.
With CCCATATA the “PBM E-score” value was 0.177.
With GGGACACA the “PBM E-score” value was 0.145.
For CATTATGC, the “PBM E-score” value was 0.0739.
For CCCATCCG, the “PBM E-score” value was -0.215.
In the case of ATATTCTC, the “PBM E-score” value was 0.212.
CATATGAC was tested, and the “PBM E-score” value was 0.0581.
In the case of GAGTTACA, the “PBM E-score” value was 0.112.
CCTGGCGC was tested, and the “PBM E-score” value was 0.123.
